Reference: PMC6805867, “Amphiphilic Triazine Polymer Derivatives as Antibacterial And Anti-atopic Agents in Mice Model” (Scientific Reports, 2019)

test system: bacteria versus sheep red blood cells; assay: Cell selectivity, TI (MHC/GM); conditions: ratio MHC/GM

Compared with `NCCCN(CCCN)c1nc(Cl)nc(NCCNc2nc(NCCNc3nc(NCCNc4nc(N)nc(NCCC(c5ccccc5)c5ccccc5)n4)nc(N(CCCN)CCCN)n3)nc(NCCC(c3ccccc3)c3ccccc3)n2)n1` [TZP12], `N=C(N)NCCCN(CCCNC(=N)N)c1nc(Cl)nc(NCCNc2nc(NCCNc3nc(NCCNc4nc(N)nc(NCCC(c5ccccc5)c5ccccc5)n4)nc(N(CCCNC(=N)N)CCCNC(=N)N)n3)nc(NCCC(c3ccccc3)c3ccccc3)n2)n1` [TZP11] is lower in “TI (MHC/GM)” value: 3.3 for the first, 1.6 for the second.

`NCCCN(CCCN)c1nc(N)nc(NCCNc2nc(NCCNc3nc(Cl)nc(N(Cc4ccccc4)Cc4ccccc4)n3)nc(N(CCCN)CCCN)n2)n1` [TZP4] and `N=C(N)NCCCN(CCCNC(=N)N)c1nc(Cl)nc(NCCNc2nc(NCCNc3nc(N)nc(N(CCCN)CCCN)n3)nc(N(Cc3ccccc3)Cc3ccccc3)n2)n1` [TZP6] are the same in “TI (MHC/GM)” value: 204.8 for the first, 204.8 for the second.

First: N=C(N)NCCCN(CCCNC(=N)N)c1nc(N)nc(NCCNc2nc(NCCNc3nc(Cl)nc(N(CCCNC(=N)N)CCCNC(=N)N)n3)nc(N(Cc3ccccc3)Cc3ccccc3)n2)n1 [TZP9]
Second: N=C(N)NCCCN(CCCNC(=N)N)c1nc(Cl)nc(NCCNc2nc(NCCNc3nc(N)nc(NCCC(c4ccccc4)c4ccccc4)n3)nc(N(CCCNC(=N)N)CCCNC(=N)N)n2)n1 [TZP10]
The “TI (MHC/GM)” value of the first is higher: 146.3 for the first, 73.1 for the second.

Compared with `NCCCN(CCCN)c1nc(N)nc(NCCNc2nc(Cl)nc(N(Cc3ccccc3)Cc3ccccc3)n2)n1` [TZP3], `N=C(N)NCCCN(CCCNC(=N)N)c1nc(N)nc(NCCNc2nc(Cl)nc(N(Cc3ccccc3)Cc3ccccc3)n2)n1` [TZP2] is lower in “TI (MHC/GM)” value: 113.8 for the first, 70.0 for the second.

First: NCCCN(CCCN)c1nc(N)nc(NCCNc2nc(NCCNc3nc(Cl)nc(N(CCCN)CCCN)n3)nc(N(CCCN)CCCN)n2)n1 [TZP7]
Second: NCCCN(CCCN)c1nc(N)nc(NCCNc2nc(Cl)nc(N(CCCN)CCCN)n2)n1 [TZP1]
The “TI (MHC/GM)” value of the first is higher: 42.7 for the first, 10.7 for the second.

Going from `NCCCN(CCCN)c1nc(NCCNc2nc(N)nc(N(Cc3ccccc3)Cc3ccccc3)n2)nc(NCCNc2nc(Cl)nc(N(Cc3ccccc3)Cc3ccccc3)n2)n1` [TZP8] to `NCCCN(CCCN)c1nc(Cl)nc(NCCNc2nc(NCCNc3nc(N)nc(NCCC(c4ccccc4)c4ccccc4)n3)nc(N(CCCN)CCCN)n2)n1` [TZP5], the “TI (MHC/GM)” value rises from 0.7 to 170.7.

Going from `CC[C@H](C)[C@H](NC(=O)CN)C(=O)NCC(=O)N[C@@H](C)C(=O)N[C@H](C(=O)N[C@@H](CC(C)C)C(=O)N[C@@H](CCCCN)C(=O)N[C@H](C(=O)N[C@@H](CC(C)C)C(=O)N[C@H](C(=O)N[C@H](C(=O)NCC(=O)N[C@@H](CC(C)C)C(=O)N1CCC[C@H]1C(=O)N[C@@H](C)C(=O)N[C@@H](CC(C)C)C(=O)N[C@H](C(=O)N[C@@H](CO)C(=O)N[C@@H](Cc1c[nH]c2ccccc12)C(=O)N[C@H](C(=O)N[C@@H](CCCCN)C(=O)N[C@@H](CCCNC(=N)N)C(=O)N[C@@H](CCCCN)C(=O)N[C@@H](CCCNC(=N)N)C(=O)N[C@@H](CCC(N)=O)C(=O)N[C@@H](CCC(N)=O)C(N)=O)[C@@H](C)CC)[C@@H](C)CC)[C@@H](C)O)[C@@H](C)O)C(C)C)C(C)C` [melittin, reference compound] to `NCCCN(CCCN)c1nc(N)nc(NCCNc2nc(NCCNc3nc(NCCNc4nc(NCCNc5nc(Cl)nc(N(CCCN)CCCN)n5)nc(N(CCCN)CCCN)n4)nc(N(CCCN)CCCN)n3)nc(N(CCCN)CCCN)n2)n1` [TZP13], the “TI (MHC/GM)” value rises from 1.1 to 73.1.
